# Reference: the supplement of paper PMC12823440, “Inhibitors supercharge kinase turnover through native proteolytic circuits” (Nature, 2025)
# Protein sequences, listed by entry. Tags and fused reporters are not part of them. Lines headed by an entry give the natural chain unless they say otherwise; changes in a name come on top.
# UniProt Q16288, whole entry, looked up: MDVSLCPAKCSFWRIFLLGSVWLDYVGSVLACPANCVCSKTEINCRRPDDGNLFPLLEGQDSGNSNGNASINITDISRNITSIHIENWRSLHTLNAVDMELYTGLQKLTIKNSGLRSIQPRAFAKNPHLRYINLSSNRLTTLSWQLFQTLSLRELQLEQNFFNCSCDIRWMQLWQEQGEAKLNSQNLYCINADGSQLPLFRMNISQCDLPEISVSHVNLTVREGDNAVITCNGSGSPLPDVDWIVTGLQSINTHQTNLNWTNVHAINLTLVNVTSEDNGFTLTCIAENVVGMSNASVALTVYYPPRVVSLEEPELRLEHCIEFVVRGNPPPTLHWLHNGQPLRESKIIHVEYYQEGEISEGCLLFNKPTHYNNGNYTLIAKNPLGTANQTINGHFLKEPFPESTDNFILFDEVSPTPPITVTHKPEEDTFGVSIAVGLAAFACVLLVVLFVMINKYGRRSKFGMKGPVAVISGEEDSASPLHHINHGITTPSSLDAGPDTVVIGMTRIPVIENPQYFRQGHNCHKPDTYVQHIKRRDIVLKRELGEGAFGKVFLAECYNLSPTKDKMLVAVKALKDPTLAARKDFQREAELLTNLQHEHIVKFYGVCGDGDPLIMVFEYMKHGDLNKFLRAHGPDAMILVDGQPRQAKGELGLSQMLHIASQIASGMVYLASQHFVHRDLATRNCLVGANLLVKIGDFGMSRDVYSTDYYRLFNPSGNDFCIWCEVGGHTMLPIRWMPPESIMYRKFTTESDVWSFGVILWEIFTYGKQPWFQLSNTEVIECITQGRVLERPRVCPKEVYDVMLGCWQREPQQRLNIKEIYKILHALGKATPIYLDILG
# UniProt P00519, whole entry: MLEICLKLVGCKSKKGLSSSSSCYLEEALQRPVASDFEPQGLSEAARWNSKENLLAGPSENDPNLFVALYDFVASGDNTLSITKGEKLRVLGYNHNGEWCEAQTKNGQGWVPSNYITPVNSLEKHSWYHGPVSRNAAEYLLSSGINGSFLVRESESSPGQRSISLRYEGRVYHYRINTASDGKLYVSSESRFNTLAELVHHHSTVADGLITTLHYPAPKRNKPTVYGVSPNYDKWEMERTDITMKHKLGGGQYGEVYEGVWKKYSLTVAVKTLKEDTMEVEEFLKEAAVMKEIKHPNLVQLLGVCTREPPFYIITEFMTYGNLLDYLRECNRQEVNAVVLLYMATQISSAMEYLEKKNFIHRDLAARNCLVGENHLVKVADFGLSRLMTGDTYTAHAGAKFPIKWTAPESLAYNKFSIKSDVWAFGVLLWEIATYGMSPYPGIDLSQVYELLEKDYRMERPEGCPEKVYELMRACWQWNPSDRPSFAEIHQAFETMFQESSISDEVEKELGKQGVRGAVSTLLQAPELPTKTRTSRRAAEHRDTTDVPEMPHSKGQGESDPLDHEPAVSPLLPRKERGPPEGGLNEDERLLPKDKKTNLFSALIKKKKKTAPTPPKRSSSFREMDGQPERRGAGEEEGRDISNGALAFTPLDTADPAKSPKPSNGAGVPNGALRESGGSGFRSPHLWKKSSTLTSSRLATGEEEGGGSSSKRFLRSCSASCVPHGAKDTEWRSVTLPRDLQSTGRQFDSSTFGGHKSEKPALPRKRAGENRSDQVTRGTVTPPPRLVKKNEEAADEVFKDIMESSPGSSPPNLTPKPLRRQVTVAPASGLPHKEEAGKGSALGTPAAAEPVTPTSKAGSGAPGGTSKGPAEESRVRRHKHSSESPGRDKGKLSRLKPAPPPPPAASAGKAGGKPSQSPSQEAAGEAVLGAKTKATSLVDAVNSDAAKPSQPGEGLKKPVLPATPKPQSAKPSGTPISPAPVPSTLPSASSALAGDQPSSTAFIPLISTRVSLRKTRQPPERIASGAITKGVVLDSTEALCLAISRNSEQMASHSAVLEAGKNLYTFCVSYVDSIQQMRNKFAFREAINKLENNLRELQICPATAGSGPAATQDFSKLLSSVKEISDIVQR
# UniProt P10398: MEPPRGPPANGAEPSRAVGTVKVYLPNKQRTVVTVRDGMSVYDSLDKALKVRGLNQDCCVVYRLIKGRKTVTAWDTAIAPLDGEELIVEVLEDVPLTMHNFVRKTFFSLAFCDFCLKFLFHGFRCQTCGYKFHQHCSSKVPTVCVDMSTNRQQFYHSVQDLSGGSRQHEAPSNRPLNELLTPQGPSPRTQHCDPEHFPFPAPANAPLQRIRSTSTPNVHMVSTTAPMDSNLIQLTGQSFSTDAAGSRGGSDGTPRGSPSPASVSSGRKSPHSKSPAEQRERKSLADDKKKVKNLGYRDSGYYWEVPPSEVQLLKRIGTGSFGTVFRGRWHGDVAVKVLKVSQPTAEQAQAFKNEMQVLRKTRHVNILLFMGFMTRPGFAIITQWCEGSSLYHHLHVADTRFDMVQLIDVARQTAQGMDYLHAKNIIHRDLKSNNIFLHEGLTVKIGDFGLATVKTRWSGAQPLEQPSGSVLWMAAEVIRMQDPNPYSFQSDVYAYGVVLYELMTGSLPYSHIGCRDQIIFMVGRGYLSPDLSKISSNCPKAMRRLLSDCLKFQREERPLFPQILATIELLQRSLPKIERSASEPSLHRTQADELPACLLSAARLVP
# UniProt Q9Y463, whole entry, looked up: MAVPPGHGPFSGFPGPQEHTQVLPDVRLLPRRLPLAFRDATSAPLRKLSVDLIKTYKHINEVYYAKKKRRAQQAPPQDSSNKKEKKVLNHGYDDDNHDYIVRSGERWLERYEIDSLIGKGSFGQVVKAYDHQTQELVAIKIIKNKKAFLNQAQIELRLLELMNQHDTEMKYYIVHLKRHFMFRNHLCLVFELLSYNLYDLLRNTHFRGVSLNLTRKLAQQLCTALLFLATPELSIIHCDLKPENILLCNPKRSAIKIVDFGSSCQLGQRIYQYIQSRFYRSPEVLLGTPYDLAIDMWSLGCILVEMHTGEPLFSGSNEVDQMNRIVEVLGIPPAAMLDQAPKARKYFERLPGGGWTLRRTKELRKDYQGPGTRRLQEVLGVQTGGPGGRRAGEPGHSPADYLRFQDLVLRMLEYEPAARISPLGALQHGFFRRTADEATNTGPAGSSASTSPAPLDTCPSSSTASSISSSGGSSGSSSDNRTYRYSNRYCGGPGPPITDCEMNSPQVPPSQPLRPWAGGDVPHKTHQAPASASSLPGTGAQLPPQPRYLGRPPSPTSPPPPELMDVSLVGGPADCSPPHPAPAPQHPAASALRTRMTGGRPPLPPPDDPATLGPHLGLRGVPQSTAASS
# UniProt P07948: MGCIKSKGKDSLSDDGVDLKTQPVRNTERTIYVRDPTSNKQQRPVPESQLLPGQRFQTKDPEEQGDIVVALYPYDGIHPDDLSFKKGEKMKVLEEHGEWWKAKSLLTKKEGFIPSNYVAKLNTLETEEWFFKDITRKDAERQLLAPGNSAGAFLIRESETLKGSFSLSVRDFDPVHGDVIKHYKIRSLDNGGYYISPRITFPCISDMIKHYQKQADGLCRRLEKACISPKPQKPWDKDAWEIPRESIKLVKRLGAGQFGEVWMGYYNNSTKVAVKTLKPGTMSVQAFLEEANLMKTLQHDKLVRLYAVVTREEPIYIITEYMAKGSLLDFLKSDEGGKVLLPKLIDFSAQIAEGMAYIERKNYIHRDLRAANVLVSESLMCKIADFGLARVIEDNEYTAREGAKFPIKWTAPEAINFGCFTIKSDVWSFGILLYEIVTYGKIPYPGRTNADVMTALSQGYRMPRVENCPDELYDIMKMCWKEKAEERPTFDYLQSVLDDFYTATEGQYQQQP
# UniProt Q9UBF8: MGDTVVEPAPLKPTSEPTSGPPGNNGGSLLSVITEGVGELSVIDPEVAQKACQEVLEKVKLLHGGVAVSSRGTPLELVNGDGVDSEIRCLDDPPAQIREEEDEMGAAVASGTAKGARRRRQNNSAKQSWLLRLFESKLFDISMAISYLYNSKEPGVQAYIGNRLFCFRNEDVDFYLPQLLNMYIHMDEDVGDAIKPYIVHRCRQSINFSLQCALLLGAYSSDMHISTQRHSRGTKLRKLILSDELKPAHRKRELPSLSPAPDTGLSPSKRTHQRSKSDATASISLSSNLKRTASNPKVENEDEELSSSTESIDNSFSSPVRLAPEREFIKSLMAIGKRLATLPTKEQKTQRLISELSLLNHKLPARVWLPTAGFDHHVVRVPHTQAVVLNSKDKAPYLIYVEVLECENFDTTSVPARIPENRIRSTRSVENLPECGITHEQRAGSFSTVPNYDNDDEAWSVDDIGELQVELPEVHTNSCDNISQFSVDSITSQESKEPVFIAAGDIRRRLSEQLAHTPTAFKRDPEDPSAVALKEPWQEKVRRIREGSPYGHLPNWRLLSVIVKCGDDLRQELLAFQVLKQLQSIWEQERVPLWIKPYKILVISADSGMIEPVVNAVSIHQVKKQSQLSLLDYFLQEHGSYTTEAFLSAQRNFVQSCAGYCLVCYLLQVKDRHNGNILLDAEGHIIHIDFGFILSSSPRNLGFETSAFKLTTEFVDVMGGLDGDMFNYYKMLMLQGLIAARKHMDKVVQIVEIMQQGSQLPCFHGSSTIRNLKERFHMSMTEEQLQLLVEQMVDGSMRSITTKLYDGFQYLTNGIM
# UniProt Q06187: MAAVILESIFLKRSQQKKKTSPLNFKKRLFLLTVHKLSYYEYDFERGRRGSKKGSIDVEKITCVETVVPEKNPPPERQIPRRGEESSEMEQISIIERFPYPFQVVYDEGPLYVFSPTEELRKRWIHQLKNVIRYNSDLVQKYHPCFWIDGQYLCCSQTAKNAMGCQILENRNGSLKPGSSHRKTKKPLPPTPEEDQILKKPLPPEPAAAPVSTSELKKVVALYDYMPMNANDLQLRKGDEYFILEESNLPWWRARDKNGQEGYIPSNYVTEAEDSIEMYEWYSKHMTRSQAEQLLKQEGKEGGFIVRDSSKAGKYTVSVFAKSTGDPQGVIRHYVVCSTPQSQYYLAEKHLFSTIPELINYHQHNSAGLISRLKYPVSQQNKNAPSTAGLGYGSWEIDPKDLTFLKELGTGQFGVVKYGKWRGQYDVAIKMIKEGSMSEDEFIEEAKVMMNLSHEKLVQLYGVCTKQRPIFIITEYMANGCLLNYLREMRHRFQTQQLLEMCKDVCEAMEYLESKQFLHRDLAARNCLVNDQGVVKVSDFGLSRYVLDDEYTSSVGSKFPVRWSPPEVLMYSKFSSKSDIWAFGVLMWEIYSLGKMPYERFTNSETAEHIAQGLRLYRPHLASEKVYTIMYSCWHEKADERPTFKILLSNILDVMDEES
# UniProt Q9Y6E0: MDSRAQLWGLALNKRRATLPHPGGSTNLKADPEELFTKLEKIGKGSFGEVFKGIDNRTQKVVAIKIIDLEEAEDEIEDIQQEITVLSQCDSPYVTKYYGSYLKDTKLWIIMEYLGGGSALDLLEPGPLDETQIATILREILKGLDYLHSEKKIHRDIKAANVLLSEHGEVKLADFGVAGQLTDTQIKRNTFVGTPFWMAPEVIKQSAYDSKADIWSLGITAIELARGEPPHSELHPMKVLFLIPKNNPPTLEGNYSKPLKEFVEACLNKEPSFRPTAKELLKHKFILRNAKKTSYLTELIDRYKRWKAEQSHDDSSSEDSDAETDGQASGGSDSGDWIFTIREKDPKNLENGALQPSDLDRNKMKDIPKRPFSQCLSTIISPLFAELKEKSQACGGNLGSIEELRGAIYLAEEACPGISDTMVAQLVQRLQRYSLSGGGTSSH
# This is one part of the list. The calls rarely recur for the same compound in another form.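 In K562 cells expressing nanoluciferase-fused kinases, luminescence was recorded at 4 h intervals between 2 and 18 h, normalized as percent of control with DMSO at 100% and a positive control at 0%. A significant (2 sigma) signal drop marks a time point as decreased. The authors' rule for a hit is not shown and takes in more than the number of time points.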
# Tests used:
# Experiment in all cases: number of time points (of 5) at which kinase-Nluc abundance scored as decreased, DMSO-normalised (count); higher = more persistent destabilization
# [1] = compound: C#Cc1cccc(Nc2ncnc3cc(OCCOC)c(OCCO)cc23)c1 [Desmethyl Erlotinib (hydrochloride)]; details: 10 µM; K562; 2-18 h
# [2] = compound: C#Cc1cccc(Nc2ncnc3cc(OCCOC)c(OCCO)cc23)c1 [Desmethyl Erlotinib]; details: 10 µM; K562; 2-18 h
# [3] = compound: C#Cc1cccc(Nc2ncnc3cc(OCCOC)c(OCCOC)cc23)c1 [Erlotinib (Hydrochloride)]; details: 10 µM; K562; 2-18 h
# [4] = compound: C#Cc1cccc(Nc2ncnc3cc(OCCOC)c(OCCOC)cc23)c1 [Erlotinib]; details: 10 µM; K562; 2-18 h
# [5] = compound: C#Cc1cccc(Nc2ncnc3cc4c(cc23)OCCOCCOCCO4)c1 [Icotinib (Hydrochloride)]; details: 10 µM; K562; 2-18 h
# [6] = compound: C#Cc1cccc(Nc2ncnc3cc4c(cc23)OCCOCCOCCO4)c1 [Icotinib]; details: 10 µM; K562; 2-18 h
# [7] = compound: C/C=C1\C(=O)C[C@H]2[C@@H]3CCC4=CC(=O)CC[C@]4(C)[C@H]3CC[C@]12C [(Z)-Guggulsterone]; details: 10 µM; K562; 2-18 h
# [8] = compound: C/C=C1\C(=O)C[C@H]2[C@@H]3CCC4=CC(=O)CC[C@]4(C)[C@H]3CC[C@]12C [Guggulsterone]; details: 10 µM; K562; 2-18 h
# [9] = compound: C=CC(=O)N1CCN(c2ncnc3c(F)c(-c4c(O)cccc4F)c(Cl)cc23)CC1; details: K562, 2-18 h
# [10] = compound: C=CC(=O)Nc1cc(Nc2ncc(C(=O)OC(C)C)c(-c3cn(C)c4ccccc34)n2)c(OC)cc1N(C)CCN(C)C [Mobocertinib (succinate)]; details: 10 µM; K562; 2-18 h
# [11] = compound: C=CC(=O)Nc1cc(Nc2ncc(C(=O)OC(C)C)c(-c3cn(C)c4ccccc34)n2)c(OC)cc1N(C)CCN(C)C [Mobocertinib]; details: 10 µM; K562; 2-18 h
# [12] = compound: C=CC(=O)Nc1cc(Nc2nccc(-c3cn(C)c4ccccc34)n2)c(OC)cc1N(C)CCN(C)C [Osimertinib (dimesylate)]; details: 2.5 µM; K562; 2-18 h
# [13] = compound: C=CC(=O)Nc1cc(Nc2nccc(-c3cn(C)c4ccccc34)n2)c(OC)cc1N(C)CCN(C)C [Osimertinib mesylate]; details: 2.5 µM; K562; 2-18 h
# [14] = compound: C=CC(=O)Nc1cc(Nc2nccc(-c3cn(C)c4ccccc34)n2)c(OC)cc1N(C)CCN(C)C [Osimertinib]; details: 2.5 µM; K562; 2-18 h
# [15] = compound: C=CC(=O)Nc1cc(Nc2nccc(-c3cn(C4CC4)c4ccccc34)n2)c(OC)cc1N(C)CCN(C)C [Almonertinib (hydrochloride)]; details: 2.5 µM; K562; 2-18 h
# [16] = compound: C=CC(=O)Nc1cc(Nc2nccc(-c3cn(C4CC4)c4ccccc34)n2)c(OC)cc1N(C)CCN(C)C [Almonertinib]; details: 2.5 µM; K562; 2-18 h
# [17] = compound: C=CC(=O)Nc1cc2c(Nc3ccc(F)c(Cl)c3)ncnc2cc1C#CC(C)(C)N1CCN(C)CC1 [AV-412 (free base)]; details: 2.5 µM; K562; 2-18 h
# [18] = compound: C=CC(=O)Nc1cc2c(Nc3ccc(F)c(Cl)c3)ncnc2cc1C#CC(C)(C)N1CCN(C)CC1; details: 2.5 µM; K562; 2-18 h
# [19] = compound: CC(=O)N[C@H](Cc1ccc(O)cc1)C(=O)N[C@H](CCCN=C(N)N)C(=O)N[C@H](Cc1ccccc1)C(N)=O; details: 10 µM; K562; 2-18 h
# [20] = compound: CC(=O)Nc1cccc(-n2c(=O)n(C3CC3)c(=O)c3c(Nc4ccc(I)cc4F)n(C)c(=O)c(C)c32)c1 [Trametinib (DMSO solvate)]; details: 10 µM; K562; 2-18 h
Target,number of time points [1],number of time points [2],number of time points [3],number of time points [4],number of time points [5],number of time points [6],number of time points [7],number of time points [8],number of time points ([9]; 2.5 µM),number of time points ([9]; 10 µM),number of time points [10],number of time points [11],number of time points [12],number of time points [13],number of time points [14],number of time points [15],number of time points [16],number of time points [17],number of time points [18],number of time points [19],number of time points [20]
CDK10 (UniProt Q15131),0,0,0,0,0,0,0,0,0,0,0,0,0,0,0,0,0,0,1,0,0
PAK4 (UniProt O96013),0,0,0,0,0,0,0,0,0,0,0,0,0,0,0,0,0,0,0,0,0
RIOK1 (UniProt Q9BRS2),0,0,0,0,0,0,0,0,0,0,0,0,0,0,0,0,0,0,0,0,0
NTRK3 (UniProt Q16288),0,0,0,0,0,0,0,0,0,0,0,0,0,0,0,0,0,0,0,0,0
PDPK1 (UniProt O15530),0,0,0,0,0,1,0,0,0,0,0,0,0,0,0,0,0,0,0,0,1
ALK (UniProt Q9UM73),0,0,0,0,0,0,0,0,0,0,0,0,0,0,0,0,0,0,0,0,0
ROR2 (UniProt Q01974),0,0,0,0,0,0,0,0,0,0,0,0,0,0,0,0,0,0,0,0,0
PIK4CA (UniProt P42356),0,0,0,0,0,0,0,0,0,0,0,0,0,0,0,0,0,0,1,0,0
ABL1 (UniProt P00519),0,0,0,4,0,0,1,0,0,0,0,0,2,2,2,0,0,0,0,0,0
PTK2 (UniProt Q05397),1,0,0,0,0,0,0,0,0,0,0,0,0,0,0,0,0,4,4,0,0
AKT1 (UniProt P31749),0,0,0,0,0,0,0,0,0,0,0,0,0,0,0,0,0,0,0,0,0
ERBB4_R711C (clone: ERBB4_mut) (UniProt Q15303),0,0,0,0,0,0,0,0,0,0,0,0,0,0,0,0,0,0,0,0,0
DDR1 (UniProt Q08345),0,0,0,0,0,0,0,0,0,0,0,0,0,0,0,0,0,5,5,0,0
INSRR (UniProt P14616),0,0,0,0,0,0,0,0,0,0,0,0,0,2,0,0,0,0,0,0,0
SYK (UniProt P43405),0,0,0,0,0,0,0,0,0,0,0,0,0,0,0,0,0,0,0,0,0
RIPK2 (UniProt O43353),3,0,0,2,0,0,0,0,0,0,0,0,0,0,0,0,0,0,0,0,0
YES1 (UniProt P07947),0,0,0,0,0,3,0,0,0,0,0,0,0,0,0,0,0,0,0,0,0
ARAF (UniProt P10398),0,0,0,0,0,0,0,0,0,0,0,0,0,0,0,0,0,0,0,0,0
DYRK1B (UniProt Q9Y463),0,0,0,0,0,0,0,0,0,0,0,0,0,0,0,0,0,0,0,0,0
LYN (UniProt P07948),0,0,0,0,0,0,0,0,0,0,0,0,0,0,0,0,0,0,0,0,0
MKNK1 (UniProt Q9BUB5),0,0,0,0,0,0,0,0,0,0,0,0,0,0,0,0,0,0,0,0,0
PIK4CB (UniProt Q9UBF8),0,0,0,0,0,3,0,0,0,0,0,0,0,0,0,0,0,0,0,0,0
PRKCA (UniProt P17252),0,0,0,0,0,0,0,0,0,0,0,0,0,0,0,0,0,0,0,0,0
MAP2K2 (UniProt P36507),0,0,0,0,0,0,0,0,0,0,0,0,0,0,0,0,0,0,0,0,0
RIPK1 (UniProt Q13546),0,0,0,0,0,3,0,0,0,0,0,0,0,0,0,0,0,0,0,0,0
BTK (UniProt Q06187),0,0,0,0,0,0,0,0,0,0,0,3,0,0,0,0,0,0,0,0,0
MAPK1 (UniProt P28482),0,0,0,0,0,0,0,0,0,0,0,0,0,0,0,0,0,0,0,0,0
STK24 (UniProt Q9Y6E0),0,0,0,0,0,0,0,0,0,0,0,0,0,0,0,0,0,0,0,0,0
FLT3 (UniProt P36888),0,0,0,0,0,0,0,0,0,0,0,0,0,0,0,0,0,0,0,0,0

# A portion of the results above, for reference:
Target,number of time points [1],number of time points [2],number of time points [3],number of time points [4],number of time points [5],number of time points [6],number of time points [7],number of time points [8],number of time points ([9]; 2.5 µM),number of time points ([9]; 10 µM),number of time points [10],number of time points [11],number of time points [12],number of time points [13],number of time points [14],number of time points [15],number of time points [16],number of time points [17],number of time points [18],number of time points [19],number of time points [20]
NTRK3 (UniProt Q16288),0,0,0,0,0,0,0,0,0,0,0,0,0,0,0,0,0,0,0,0,0
PDPK1 (UniProt O15530),0,0,0,0,0,1,0,0,0,0,0,0,0,0,0,0,0,0,0,0,1
